Measured values from PubChem BioAssay AID2685 (National Center for Advancing Translational Sciences (NCATS), 2010).
The other results are listed elsewhere or left out. Further columns of the screen follow, without active or inactive calls. The list favours compounds with an active or inconclusive main result. The note in brackets gives the kind of curve behind each potency; many fits are weak.

Experiment: qHTS Assay for Lipid Storage Modulators in Drosophila S3 Cells;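 as to cell number change: cells counted by Cell Tracker Red CMTPX staining in the red channel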
Conditions: BODIPY lipid droplet fluorescence, 18-24 h; for cell number change: measured here: cell count max response, cells fed with added oleic acid
How it was run: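 Laser-scanning cytometry quantifies lipid droplet accumulation (500–530 nm total intensity; droplet/cell object ratio) in oleic acid-fed (400 uM added) Drosophila S3 cells treated with a concentration series. 20 uM Triacsin C defined 100% inhibition.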

[1] = measured here: lipid fluorescence (Fed channel) AC50, cells fed with added oleic acid
[2] = measured here: cell number channel AC50, cells fed with added oleic acid

| SMILES | cell number change [%] | AC50 [1] | AC50 [2] |
| --- | --- | --- | --- |
| COc1ccc(O[C@H]2C=C[C@@H](c3ccccc3)O[C@@H]2COC(=O)CC/C(C)=N/O[C@@H](C)c2cc(-c3c(C)cc(C)cc3C)no2)cc1 | -6.57 | 6.51 µM [rising, partial curve] | – |
| NS(=O)(=O)c1ccc(CCNc2ccc(C(F)(F)F)cn2)cc1 | 58.7 | – | 11.6 µM [rising, partial curve, poor fit] |
| COC(=O)c1ccc(NC(=S)N2CCN(CCO)CC2)cc1 | 3.41 | 18.4 µM [rising, partial curve] | – |
| CCOC(=O)c1nc(NNC(C)=O)sc1C | -4.63 | – | – |
| Cc1cc(/C=N/n2c(COc3ccccc3)nc3ccccc3c2=O)c(O)c([N+](=O)[O-])c1 | -10.3 | – | – |
| O=C(c1ccc2c(=O)n3c(nc2c1)CCCCC3)N1CCCCC1 | -54.1 | – | 29.1 µM [falling, single point] |
| COc1cc(/C=N/OCC(=O)NC2CCCCC2)ccc1OCc1ccccc1 | 79.1 | – | 29.1 µM [rising, partial curve, poor fit] |
| O=C(c1ccc(S(=O)(=O)Nc2cccc(C(F)(F)F)c2)cc1)N1CCN(c2ccccc2O)CC1 | -60.7 | 2.06 µM [falling, partial curve] | 20.6 µM [falling, partial curve] |
| COCCn1nnnc1CN1CCN2CCCC2C1 (stereo unspecified) | -7.15 | 0.146 µM [falling, full curve, poor fit] | – |
| CC(C)(C)c1ccc(C(=O)N2CCN(Cc3ccccc3)CC2)cc1 | 1.65 | – | – |
| CC(=O)CCC1CC(c2ccc(Cl)cc2)=NO1 (stereo unspecified) | 16 | 8.2 µM [rising, partial curve] | 3.66 µM [falling, single point] |
| COc1ccccc1N1CCN(/N=C\c2cccnc2)CC1 | 18.9 | – | – |
| CCc1[nH]nc2c1C(c1cccnc1)C(C#N)=C(N)O2 (stereo unspecified) | -89.6 | 0.0259 µM [rising, full curve] | 13 µM [falling, partial curve] |
| Cc1nn(C(C)C(=O)NC2CCCCC2)c(=O)c2nn(-c3ccccc3)c(C)c12 (stereo unspecified) | -4.25 | 29.1 µM [rising, single point] | – |
| O=C(NC1CC1)C1=C[C@H](c2ccc(C(F)(F)F)cc2)C[C@H](OCc2ccc(CO)cc2)O1 | -1.99 | 0.058 µM [rising, full curve, poor fit] | – |
| CCN(CC)S(=O)(=O)c1cc(C(=O)O)ccc1OC | -22.1 | 29.1 µM [falling, single point] | – |
| O=C(CNC(=O)c1ccc2c(c1)OCO2)Nc1cccc(Br)c1 | -2.97 | 6.51 µM [rising, single point] | – |
| CC1(C)Nc2ccccc2N(Cc2ccc([N+](=O)[O-])cc2)C1=O | 90.9 | – | 29.1 µM [rising, single point] |
| COc1cccc(N2CCN(c3ccc4nnc(CCC(=O)Nc5ccc(OC)c(OC)c5)n4n3)CC2)c1 | 1.49 | 2.91 µM [falling, full curve] | – |
| O=C(CCCN1C(=O)c2cccc3cccc(c23)C1=O)N1CCN(c2ccccc2O)CC1 | – | 29.1 µM [falling, single point] | – |

| SMILES | cell number change [%] | AC50 [1] | AC50 [2] |
| --- | --- | --- | --- |
| COc1ccc(C)cc1NC(=O)CCCN1C(=O)CN(C)C1=O | -1.13 | 0.00731 µM [rising, full curve, poor fit] | – |
| CC(NC(=O)c1ccco1)c1nc(-c2ccccc2)no1 (stereo unspecified) | – | 14.6 µM [falling, partial curve] | – |
| COc1cc(C(=O)NCCCCCC(=O)O)cc(OC)c1OC | 0.621 | 0.651 µM [rising, full curve, poor fit] | – |
| Cc1nn(-c2ccccc2)c(C)c1C(=O)OCC(=O)N1c2ccccc2NC(=O)C1(C)C | 17 | 0.651 µM [falling, full curve] | – |
| C=CCn1ncc(OC)c(Cl)c1=O | 1.03 | – | – |
| CC1Sc2ccc(S(=O)(=O)CCC(=O)Nc3cc(F)ccc3F)cc2NC1=O (stereo unspecified) | 16.8 | 16.4 µM [rising, partial curve] | – |
| OCc1ccccc1OCCCOc1cccc2cccnc12 | -13.5 | – | – |
| Cc1cccc(Nc2nnc(SCC3CCCCO3)s2)c1C (stereo unspecified) | -21.4 | 0.0164 µM [falling, full curve, poor fit] | – |
| COc1cccc(CN(C)C(=O)CCN=C2NS(=O)(=O)c3ccccc32)c1OC | 24.4 | 0.82 µM [falling, full curve] | – |
| CCO[C@@H]1OC(C(=O)Nc2ccccc2)=C[C@H](C2CC2)[C@H]1CCCO | -19.2 | 0.0146 µM [falling, full curve] | – |
| CN(C)c1ccc(C(=O)N2CCCC2)cc1 | 14.9 | 16.4 µM [falling, partial curve] | – |
| O=S(=O)(NCc1ccncc1)c1ccc(Br)s1 | -130 | – | – |
| Cn1c(=NC(=O)c2cccc([N+](=O)[O-])c2)sc2ccccc21 | 70.6 | 2.31 µM [rising, partial curve, poor fit] | 0.082 µM [rising, partial curve, poor fit] |
| Cc1ccc(NC(=O)c2cc(Cl)ccc2[N+](=O)[O-])cc1C | 19.7 | – | 1.3 µM [rising, full curve] |
| Fc1ccc(NC(=S)N/N=C/c2ccc(F)c(F)c2)cc1 | 39.4 | – | 4.11 µM [rising, full curve] |
| CCc1ccc(NC(=O)N(CCN2CCOCC2)Cc2ccc3c(c2)CCCN3CC)cc1 | 127 | 23.1 µM [rising, partial curve] | 0.082 µM [rising, full curve] |
| O=C(Nc1nnc(Cc2ccccc2)s1)Nc1ccccc1F | -4.46 | – | 6.51 µM [falling, single point] |
| O=C(/C=C/c1ccc([N+](=O)[O-])cc1)Oc1ccc(/C=N/NC(=O)c2ccncc2)cc1 | -12.1 | 5.8 µM [rising, single point] | – |
| S=C(NCC1CCCO1)NC1CC1 (stereo unspecified) | -12.7 | 29.1 µM [falling, single point] | – |
| Cc1ccc(-c2csc(NC(=O)c3ccc([N+](=O)[O-])o3)n2)cc1 | 12.2 | 0.58 µM [falling, single point] | – |

Structures shown so far that contain an aryl methoxy group, in the order listed:

| SMILES | cell number change [%] | AC50 [1] | AC50 [2] |
| --- | --- | --- | --- |
| COc1ccc(O[C@H]2C=C[C@@H](c3ccccc3)O[C@@H]2COC(=O)CC/C(C)=N/O[C@@H](C)c2cc(-c3c(C)cc(C)cc3C)no2)cc1 | -6.57 | 6.51 µM [rising, partial curve] | – |
| COc1cc(/C=N/OCC(=O)NC2CCCCC2)ccc1OCc1ccccc1 | 79.1 | – | 29.1 µM [rising, partial curve, poor fit] |
| COc1ccccc1N1CCN(/N=C\c2cccnc2)CC1 | 18.9 | – | – |
| CCN(CC)S(=O)(=O)c1cc(C(=O)O)ccc1OC | -22.1 | 29.1 µM [falling, single point] | – |
| COc1cccc(N2CCN(c3ccc4nnc(CCC(=O)Nc5ccc(OC)c(OC)c5)n4n3)CC2)c1 | 1.49 | 2.91 µM [falling, full curve] | – |
| COc1ccc(C)cc1NC(=O)CCCN1C(=O)CN(C)C1=O | -1.13 | 0.00731 µM [rising, full curve, poor fit] | – |
| COc1cc(C(=O)NCCCCCC(=O)O)cc(OC)c1OC | 0.621 | 0.651 µM [rising, full curve, poor fit] | – |
| C=CCn1ncc(OC)c(Cl)c1=O | 1.03 | – | – |
| COc1cccc(CN(C)C(=O)CCN=C2NS(=O)(=O)c3ccccc32)c1OC | 24.4 | 0.82 µM [falling, full curve] | – |
